Data published in paper PMC3591345, “A Novel Single-Strand Specific 3′–5′ Exonuclease Found in the Hyperthermophilic Archaeon, Pyrococcus furiosus”.
Weaker means in comparison with the reference protein, sequence or condition of that experiment. Where a protein sequence is shown, tags need not be part of it.

Target: T1, PfuExo I (Pyrococcus furiosus) (UniProt Q8TZE9)
T1 sequence (looked up): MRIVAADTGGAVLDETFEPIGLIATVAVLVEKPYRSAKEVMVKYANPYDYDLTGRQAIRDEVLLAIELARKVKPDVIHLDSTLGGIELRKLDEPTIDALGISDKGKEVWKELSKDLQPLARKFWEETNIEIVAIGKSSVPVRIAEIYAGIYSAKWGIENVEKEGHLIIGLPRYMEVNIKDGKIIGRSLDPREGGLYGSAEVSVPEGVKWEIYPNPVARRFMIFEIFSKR
Experiment: EMSA
Settings: no Mg2+, 0.1 mM EDTA, 1-1000 nM protein, 0.1% glutaraldehyde fixation, slight shifts, 20 mM triethanolamine (pH not stated), 50 mM NaCl, 0.1 mg/ml BSA, 2.5 nM DNA, 20 min at 37 C, then 0.1% glutaraldehyde, 4.5% native PAGE, recombinant protein, residues 1-229, label: 32P (5')

AGCTACCATGCCTGCACGAATTAAGCAATTCGTAATCATGGTCATAGCT (double strand) [dsDNA d49F/d49R]
binding result: binds more weakly
